# Taken from: PubChem BioAssay AID504808 (Drosophila RNAi Screening Center, 2011)
# Assay: 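Chromatin factors that keep E2F targets switched off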 (primary screen)
# System: Drosophila S2 cells
# Reagent: long dsRNA against Drosophila genes
# Detection: 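Firefly luciferase driven by E2F sites, normalised to Renilla luciferase on the same minimal promoter, measured by plate reader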
# Scale: E2F firefly: higher = more E2F reporter activity; Renilla normaliser: higher = more normaliser reporter signal
# Hit rule: 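a knock-down counted as active when the firefly/Renilla E2F signal rose above 50%, a threshold chosen arbitrarily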
# The screen tested about 21,000 reagents; below is a random part of those with a known target gene and a result. Of all reagents, 18 (0.084%) were called active. 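Raw counts without plate normalisation, one of two replicates; the ratio scores behind the calls were not deposited.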 A number with no mark means an inactive call. Names joined by + are all predicted targets of the reagent. Not stated in the record: the amount of reagent, the time to read-out.
"E2F firefly, rep 1","Renilla normaliser, rep 1",target,DRSC id
64976,3524,HDAC3,DRSC12352
95926,4137,Acp36DE,DRSC01860
95818,4987,amx,DRSC18736
67048,2797,tst + CG10375,DRSC14237
1.34e5,5836,PolI,DRSC16267
64733,3759,CG14669,DRSC12065
80659,3733,CG14669,DRSC12067
94446,4172,CG14669,DRSC12068
1.38e5,6949,CG14669,DRSC12255
1.20e5,6586,Ir68a,DRSC10599
1.49e5,4833,Np,DRSC06089
1.53e5,5348,Np,DRSC07094
1.09e5,4927,SMC1,DRSC16846
1.37e5,5121,CG42326,DRSC06483
1.32e5,4645,CG42326,DRSC06484
1.09e5,5562,CG14627,DRSC18630
1.01e5,4404,CG3520,DRSC04383
1.35e5,6755,CG15025,DRSC15031
69264,4009,CG6928,DRSC10749
79025,3887,DNAlig1,DRSC04518
5855,313,Cdc7,DRSC18428
71219 (active),6033,Cdc7,DRSC18429
6111,832,RpS6,DRSC18712
60802,2978,Mink,DRSC14291
1.38e5,8382,CG14102,DRSC10103
1.49e5,8003,CG14282,DRSC14763
1.11e5,5582,Or2a,DRSC18690
73823,3498,MRP,DRSC02942
92562,3950,hbt,DRSC02503
78836,4080,Pi3K68D,DRSC11253
1.31e5,5986,Snoo,DRSC01008
91250,3511,Snoo,DRSC03004
1.55e5,5011,Snoo,DRSC03035
1.28e5,6274,mRpS18C,DRSC16538
73619,2984,CG15011,DRSC08464
1.48e5,5334,Pten,DRSC03402
99928,4293,CG5435,DRSC02860
2853,224,Rme-8,DRSC07054
1391,840,ssx,DRSC18492
69458,3426,CG13887,DRSC08357
84247,3476,CG4891,DRSC01936
1.17e5,5671,Stt3B,DRSC16781
1918,1048,CG1544,DRSC15036
43430,2882,FER,DRSC12735
1.43e5,5407,FER,DRSC16673
98132,4227,CG10853,DRSC08164
1.16e5,6141,NPF,DRSC17019
84046,2349,scro,DRSC17099
87551,4544,scro,DRSC17102
91673,4325,CG31802,DRSC02459
83380,4243,CG32219,DRSC09641
2.25e5,6165,baz,DRSC20309
93885,4024,CG9945,DRSC07347
1.20e5,5148,tsr,DRSC04718
7850,740,Cpr11B,DRSC19859
1.08e5,5441,Gyc89Da,DRSC15008
68230,3575,S-Lap1,DRSC10627
86601,3261,Gpdh3,DRSC13561
1.49e5,6667,Gpdh3,DRSC15325
78852,3290,CG9485,DRSC04557
1.38e5,4778,Mal-A4,DRSC07236
1.13e5,6328,CG7362,DRSC16236
39934,3058,Rrp6,DRSC16223
59687,3734,Noc3,DRSC12535
1.49e5,8144,CG16727,DRSC15139
1.12e5,5433,CG15343,DRSC18028
1.49e5,4684,G6P,DRSC00414
79574,3106,Sbp2,DRSC10766
2642,238,CG42516 + Pbp49,DRSC06073
1.40e5,4730,Obp56e,DRSC07188
64305,3383,PIG-O,DRSC06123
3486,189,AGBE,DRSC06861
1.52e5,7661,Ir92a,DRSC15111
1776,928,Drice,DRSC16715
76260,3499,Fancm,DRSC16348
1.09e5,4712,CG14852,DRSC14976
1.25e5,6292,RacGAP84C,DRSC12630
2062,864,trr,DRSC18845
73098,3683,CG4377,DRSC04467
59285,2838,Dp1,DRSC07403
1.37e5,4600,CG14500,DRSC06471
75033,3600,CG6180,DRSC02937
69735,3432,Rh50,DRSC08692
85301,3630,CG9641,DRSC00721
1.14e5,4294,Ccn,DRSC09504
1.15e5,4975,Ccn,DRSC09506
70239,3738,Ccn,DRSC10062
1.29e5,7271,Ccn,DRSC10063
1.19e5,5436,X11Lbeta,DRSC18156
1.29e5,5897,X11Lbeta,DRSC18158
1.41e5,6548,CG15741,DRSC19707
1.01e5,4311,CG43861,DRSC02308
1.44e5,6503,Cyp311a1,DRSC20239
92524,4434,miple2,DRSC08723
1.07e5,4898,barr,DRSC03488
1.13e5,5054,DZIP1,DRSC14620
62968,2785,Sym,DRSC12301
1.21e5,7718,CG17272,DRSC15211
75501,3717,Mpc1,DRSC14770
78691,5820,wdb,DRSC14163
1.30e5,5653,Ugt37A2,DRSC15861
1.45e5,4770,CG42369,DRSC03244
1.57e5,7549,Arl1,DRSC09667
59471,3550,Orc1,DRSC07496
1.37e5,4998,tgy,DRSC20045
98327,3357,kra,DRSC12320
1.20e5,5523,CG18622,DRSC15360

Called active, among the entries above:
"E2F firefly, rep 1","Renilla normaliser, rep 1",target,DRSC id
71219 (active),6033,Cdc7,DRSC18429
